Results: patent US20140363406A1, “ESTROGEN METABOLITE LEVELS AND CYP1B1 POLYMORPHISMS IN LUNG CANCER DIAGNOSIS, PROGNOSIS, AND RISK ASSESSMENT” (Institute for Cancer Research d/b/a The Research Institute …, priority 2012, published 2014)

Test: LC-MS2 levels of estrogen and its metabolites in perfused lungs of wild-type 129SvJ mice
Format: in vivo, mouse
Conditions: for level in lungs of female mice compared with male mice: higher in females; for level in female lung versus male lung (in words): absolute level

| Compound | level in lungs of female mice compared with male mice (wild-type 129SvJ mice) [fold] | level in female lung versus male lung (in words) (wild-type 129SvJ mice) | other results |
| --- | --- | --- | --- |
| C[C@]12CC[C@@H]3c4ccc(O)c(O)c4CC[C@H]3[C@@H]1CCC2=O [4-OHE1, 4-hydroxyestrone] | 2 | – | level within the lungs (endogenous level, female wild-type 129SvJ mice): 7.26 pg/g; level within the lungs (endogenous level, male wild-type 129SvJ mice): 3.26 pg/g |
| COc1cc2c(cc1O)CC[C@@H]1[C@@H]2CC[C@]2(C)[C@@H](O)CC[C@@H]12 [2-OMeE2, 2-methoxyestradiol] | – | higher in female lungs | – |
| C[C@]12CC[C@@H]3c4ccc(O)c(O)c4CC[C@H]3[C@@H]1CC[C@@H]2O [4-OHE2, 4-hydroxyestradiol] | 2 | – | – |
| C[C@]12CC[C@@H]3c4ccc(O)cc4CC[C@H]3[C@@H]1C[C@@H](O)[C@@H]2O [E3, estriol] | – | – | concentration in the lungs (endogenous level, perfused lungs of both male and female wild-type 129SvJ mice): ~1 pg/g |
| COc1cc2c(cc1O)CC[C@@H]1[C@@H]2CC[C@]2(C)C(=O)CC[C@@H]12 [2-OMeE1, 2-methoxyestrone] | – | higher in female lungs | – |
| C[C@]12CC[C@@H]3c4cc(O)c(O)cc4CC[C@H]3[C@@H]1CCC2=O [2-OHE1, 2-hydroxyestrone] | – | comparable in both genders | concentration as percentage of total estrogen, between genders (in words) (wild-type 129SvJ mice): neither 2-OHE1 nor 2-OMeEs varied significantly |
